The values below come from the supplement of paper PMC11348887.

Each structure is given as a SMILES string. Structures can show the parent of a compound that is named as a salt. Some of the results follow. Most values lie at the level of the controls, where differences are scatter.

The assay relates to hPSC-derived cortical neurons (WA09). The experiment in a line: nucleus area z-score vs screen plate; higher = larger nuclei (more mature). The following applies: 5 µM; treatment: days 7-14 after plating, readout day 21.
As to `CN1CCC(COc2cnc(-c3cccc(Cn4nc(-c5cccc(C#N)c5)ccc4=O)c3)nc2)CC1`, the nucleus area z-score is -0.845.
With `CNC(=O)c1ccc(N2C(=S)N(c3cnc(C#N)c(C(F)(F)F)c3)C(=O)C23CCC3)cc1F` the figure was 0.802; with `C[C@]12C=CC(=O)C=C1CC[C@@H]1[C@@H]2[C@@H](O)C[C@@]2(C)[C@H]1CC[C@]2(O)C(=O)CO` [Prednisolone], 0.211.
Consider `Oc1c(I)cc(I)c2cccnc12` [Diiodohydroxyquinoline], for which the nucleus area z-score is 0.458.
With `C=C1C[C@@]2(O)O[C@@]3(C[C@H]2C(C)C)[C@@H](C)CC[C@@H]13` [Curcumol] the figure was -0.19; with `O=C(c1ccccc1)c1ccc2n1CCC2C(=O)O` (stereo not given) [Ketorolac], 0.287.
With `COC(=O)CC[C@H](NC(=O)[C@H](CC(=O)OC)NC(=O)OCc1ccccc1)C(=O)N[C@H](C(=O)N[C@@H](CC(=O)OC)C(=O)CF)C(C)C` the figure was 0.33.
The same measure for `O=C(c1cccc(Cl)c1F)N1CCN(Cc2cccc(Nc3nccs3)n2)CC1`: 0.873; for `CNC(=O)[C@H](Cc1ccccc1)NC(=O)[C@H](CC(C)C)[C@H](CSc1cccs1)C(=O)NO` [Batimastat (BB-94)]: -0.042; for `C[C@H](CCC(=O)O)[C@H]1CC[C@H]2[C@@H]3CC[C@@H]4C[C@H](O)CC[C@]4(C)[C@H]3C[C@H](O)[C@]12C` [Deoxycholic acid]: 0.374.
`CCCC(=O)O[C@]1(C(=O)COC(C)=O)CC[C@H]2[C@@H]3C[C@H](F)C4=CC(=O)C=C[C@]4(C)[C@@]3(F)[C@@H](O)C[C@@]21C` [Difluprednate] gave a nucleus area z-score of 0.572.
The same measure for `CNc1nc(Nc2cn(C(C)(C)C#N)nc2C)ncc1C(F)(F)F`: 0.0916; for `CC[C@H](C)[C@@H]1NC(=O)[C@H](Cc2ccc(O)cc2)NC(=O)[C@@H](N)CSSC[C@@H](C(=O)N2CCC[C@H]2C(=O)N[C@@H](CC(C)C)C(=O)NCC(N)=O)NC(=O)[C@H](CC(N)=O)NC(=O)[C@H](CCC(N)=O)NC1=O` [Oxytocin (Syntocinon)]: 0.189.
With `CN(Cc1cnc2nc(N)nc(N)c2n1)c1ccc(C(=O)N[C@@H](CCC(=O)O)C(=O)O)cc1` [Methotrexate] the figure was 0.723.
With `O=C(/C=C\n1cnc(-c2cc(C(F)(F)F)cc(C(F)(F)F)c2)n1)NNc1ccccn1` [Verdinexor (KPT-335)] the figure was -9.99; with `CCN1CCCC1CNC(=O)c1cc(S(=O)(=O)CC)c(N)cc1OC` (stereo not given) [Amisulpride], 1.06.
For the molecule `CC(C)(C(=O)NCC(F)(F)C(F)(F)F)C(=O)N[C@@H]1C(=O)Nc2ccccc2-c2ccccc21`, the nucleus area z-score was -1.84.
With `CC1CC(OC(=O)C(O)c2ccccc2)CC(C)(C)C1` (stereo not given) [Cyclandelate] the figure was 0.33.
With `CCc1c(C(=O)NCCc2ccc(N3CCCCC3)cc2)[nH]c2ccc(Cl)cc12` the figure was 0.126; with `COc1ncc(-c2ccc3nccc(-c4ccnnc4)c3c2)cc1NS(=O)(=O)c1ccc(F)cc1F`, -8.34.
With `NCc1c[nH]c(=S)n1[C@H]1CCc2c(F)cc(F)cc2C1` [Nepicastat (SYN-117) HCl] the figure was -0.289; with `Cc1cc(/N=N/c2ccc(S(=O)(=O)Nc3ccccn3)cc2)c(N)cc1O`, -0.92; with `CC1=C(CC(=O)O)c2cc(F)ccc2/C1=C\c1ccc([S+](C)[O-])cc1` (stereo not given) [Sulindac], -0.0331.
In the case of `CC1(C)S[C@@H]2[C@H](NC(=O)[C@H](N)c3ccc(O)cc3)C(=O)N2[C@H]1C(=O)O` [Amoxicillin], the nucleus area z-score is -0.072.
The same measure for `COc1ccc(C(=O)c2ccccc2O)c(O)c1` [2,2_-Dihydroxy-4-methoxybenzophenone]: 0.437.
Regarding `Cc1cccc(-c2[nH]c(CNc3ccccc3F)nc2-c2ccc3ncnn3c2)n1`, the nucleus area z-score was 4.48.
The same measure for `CN(CCOc1ccc(CC2SC(=O)NC2=O)cc1)c1ccccn1` (stereo not given) [Rosiglitazone]: -0.00733; for `O=C(Nc1cccc(Cl)c1)c1ccccn1`: 0.347.
In turn, `CN1CCN(c2ccc(OC(F)(F)F)c(Nc3ncc4c(n3)-c3c(c(C(N)=O)nn3CCO)CC4)c2)CC1` had a nucleus area z-score of 1.12.
For the molecule `C#Cc1cccc(Nc2ncnc3cc(OCCOC)c(OCCOC)cc23)c1` [Erlotinib], the nucleus area z-score was 0.409.
For `COc1ccccc1N1CCN(CC(O)COc2cccc3ccccc23)CC1` (stereo not given) [Naftopidil DiHCl], the nucleus area z-score is -4.
Regarding `NC[C@H]1O[C@H](O[C@H]2[C@H](O)[C@@H](O[C@H]3O[C@H](CO)[C@@H](O)[C@H](N)[C@H]3O)[C@H](N)C[C@@H]2N)[C@H](O)[C@@H](O)[C@@H]1O` [Kanamycin sulfate], the nucleus area z-score was -0.213.
Regarding `CC(=O)Oc1cc(C(F)(F)F)ccc1C(=O)O` [Triflusal], the nucleus area z-score is -1.97.
For the molecule `COc1cc(-c2ncn(/C=C\C(=O)OC(C)C)n2)cc(C(F)(F)F)c1`, the nucleus area z-score is -5.99.
In the case of `CCCc1cc(C(N)=S)ccn1` [Protionamide], the nucleus area z-score turned out to be 0.707.
The same measure for `O=S(=O)(O)NC1CCCCC1` [Cyclamic  acid]: 1.43; for `CCN(CCCOc1ccc2c(Nc3cc(CC(=O)Nc4cccc(F)c4)[nH]n3)ncnc2c1)CCOP(=O)(O)O` [Barasertib (AZD1152-HQPA)]: 1.74.
With `CC(C)(C)OC(=O)Nc1ccc(-c2cc(C(=O)NCCCCCCC(=O)NO)no2)cc1` the figure was -3.01.
With `O=C(O)CCC(=O)Nc1ccc(S(=O)(=O)Nc2nccs2)cc1` [Succinylsulfathiazole] the figure was 0.171.
The molecule `CCCS(=O)(=O)Nc1ccc(F)c(C(=O)c2c[nH]c3ncc(-c4ccc(Cl)cc4)cc23)c1F` [Vemurafenib (PLX4032_ RG7204)] yielded a nucleus area z-score of 0.459.
